Measured data: PubChem BioAssay AID504804 (Drosophila RNAi Screening Center, 2011)
The deposit covers about 19,000 reagents; shown is an unselected part of those with a known target gene and a result. Over the whole deposit, 47 (0.25%) got an active call. 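Signals are raw, not normalised; exact z-scores behind calls not deposited; actives needed confirmation, so some wells reaching 2 SD are inactive.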 The numbers tell different reagents against one gene apart. Names joined by + are all predicted targets of the reagent.

Assay: 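dsRNAs that improve Kc cell survival under doxorubicin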 (primary screen)
System: Drosophila Kc cells
Reagent: long dsRNA against Drosophila genes, 0.5 µg dsRNA per well
Time to read-out: 96 h (48 h knock-down, then 48 h drug)
Challenge: doxorubicin 5 µg/ml for 48 h, added 48 h after dsRNA
Detection: 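Luminescent ATP counts per replicate, not normalised, reflecting viable cells after 48 h dsRNA knock-down followed by 48 h of 5 µg/ml doxorubicin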
Reading the numbers: raw ATP luminescence: higher = more viable cells, protection from doxorubicin
Hit rule: 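z-score of 2 or more over plate mean in both duplicates, retained only when retests and separate dsRNAs confirm the protection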

gene knocked down	reagent	SD above plate mean	raw ATP luminescence, replicate 1	raw ATP luminescence, replicate 2	outcome
CG15522	1		45460	33100	inactive
Gem4b + Gem4c + Glos	1		26640	38230	inactive
CG13060	1		48927	42873	inactive
CG42755 (retired record)	1		1.35e5	1.59e5	inactive
CG42755 (retired record)	2		1.44e5	1.95e5	inactive
CG6980	1		37323	41947	inactive
wupA	1		3.43e5	3.50e5	inactive
gdrd	1		52410	41330	inactive
CG10654	1		69817	61367	inactive
CG32486	1		34413	49913	inactive
Reps	1		53983	81720	inactive
Krn	1		89900	72913	inactive
CG40198	1		1.86e5	1.93e5	inactive
ICA69	1		21177	19947	inactive
CG13700	1		74387	46130	inactive
CG11475	1		73293	75967	inactive
Spn55B	1		1.76e5	1.82e5	inactive
Pten	1		49697	68853	inactive
brv3	1		40420	42030	inactive
CG10041	1		57540	57983	inactive
CG7542	1		36680	41423	inactive
Pax	1		3.16e5	2.51e5	inactive
Pax	2	2 to 3 SD above plate mean	1.41e5	1.19e5	active
Pax	3		66777	65597	inactive
Cat	1		46983	31083	inactive
Cht10	1		62313	61130	inactive
Cht10	2		58353	61900	inactive
Cht10	3		65950	70060	inactive
Ak1	1		72267	67977	inactive
CG6709 + Hez	1		65063	62247	inactive
CG6709 + Hez	2		71843	60690	inactive
sti	1		62723	49577	inactive
sti	2		64910	48690	inactive
Pex2	1		36130	57743	inactive

Sorted by “raw ATP luminescence, replicate 2” (low to high): 2 of the entries above.
gene knocked down	reagent	SD above plate mean	raw ATP luminescence, replicate 1	raw ATP luminescence, replicate 2	outcome
brv3	1		40420	42030	inactive
Pten	1		49697	68853	inactive
